# Assay results from PubChem BioAssay AID2685 (National Center for Advancing Translational Sciences (NCATS), 2010).
# The other results are listed elsewhere or left out. The main result of the screen is listed elsewhere. These columns were measured beside it and carry no call. Most of these compounds were active or inconclusive in the main read-out, so they are no random draw. Potencies come from curve fits of mixed quality, noted in brackets.
# Experiment: qHTS Assay for Lipid Storage Modulators in Drosophila S3 Cells;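 for cell number change: cells counted by Cell Tracker Red CMTPX staining in the red channel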
# Conditions: BODIPY lipid droplet fluorescence, 18-24 h; for cell number change: measured here: cell count max response, cells fed with added oleic acid
# How it was run: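 Drosophila S3 cells loaded with oleic acid (400 uM, as added) and compounds at several concentrations; lipid droplets imaged by 488-nm laser-scanning cytometry, 500–530 nm intensity and object ratio to cell channel. Percent activity normalized to 20 uM Triacsin C.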
# [1] = measured here: lipid fluorescence (Fed channel) AC50, cells fed with added oleic acid
# [2] = measured here: cell number channel AC50, cells fed with added oleic acid
SMILES,cell number change,AC50 [1],AC50 [2]
Cc1cccc(-c2noc(CN(C(C)C)S(=O)(=O)c3ccc(F)cc3)n2)c1,-23.4%,"2.59 µM [rising, partial curve, poor fit]",
O=C(Cn1cncn1)N/N=C/c1ccccc1O,-49.5%,"29.1 µM [falling, single point]","0.0103 µM [falling, full curve, poor fit]"
NS(=O)(=O)c1cccc(NC(=O)CSc2nnc(C3CC3)n2Cc2ccccc2)c1,13.5%,"18.4 µM [rising, partial curve]",
Cc1onc(-c2ccccc2Cl)c1C(=O)N1CCCc2ccccc21,0.776%,,
O=C(Cc1ccc(Br)cc1)N1CCN(C(=O)c2ccco2)CC1,30.7%,,"14.6 µM [rising, partial curve]"
CCc1nc(SCC(=O)NCCc2ccccc2)c2oc3ccccc3c2n1,1.69%,,
CCOc1ccc2cc(S(=O)(=O)N3CCCCC3)ccc2c1,-3.95%,,
CCc1ccccc1-n1nnnc1SCC(=O)Nc1ccc(N2CCN(C)CC2)cc1,76.2%,"29.1 µM [rising, single point]","14.6 µM [rising, partial curve]"
CCn1ccnc1CN(C)C(=O)CCc1nnc(CCC2CCCCC2)o1,-12.7%,"3.66 µM [rising, single point]",
COc1ccc(S(=O)(=O)N2CCOCC2)cc1NC(=O)Cc1coc2cc(C)ccc12,-2.81%,,
Cc1ccc(NC(=O)c2cnccn2)c(Br)c1,-16.1%,"6.51 µM [falling, single point]",
Cc1ccc(C)c(C(=O)C(C)Sc2nc3nn(-c4ccccc4)c(=O)c-3c3n2CCCCC3)c1 (configuration not stated),-10.9%,"6.51 µM [falling, single point]",
c1cc2c(cc1NC1CCCCCC1)OCO2,-35.6%,"29.1 µM [falling, single point]","20.6 µM [falling, single point]"
CNS(=O)(=O)c1cn(CC(=O)NCc2ccc(F)cc2)cc1S(=O)(=O)NC,,"6.51 µM [rising, partial curve]","1.46 µM [rising, partial curve]"
COc1ccc(C(CC(=O)N2CCOCC2)C(C)C)cc1 (configuration not stated),-5.78%,"3.26 µM [falling, partial curve]",
O=C(Cn1cnc2c(cnn2-c2ccccc2)c1=O)N1CCCc2ccccc21,16.3%,"2.59 µM [rising, full curve]","1.03 µM [rising, partial curve]"
CC(=O)Nc1ccc(S(=O)(=O)N2CCN(CCCOc3cc(C)ccc3C)CC2)cc1,-4.96%,,
COc1ccc(N2CC(NS(=O)(=O)c3ccc(F)cc3)CC2=O)cc1 (configuration not stated),,"29.1 µM [rising, single point]","0.13 µM [falling, full curve, poor fit]"
O=C(N/N=C/c1cccnc1)c1ccccc1OCc1ccc(Cl)cc1,,"0.651 µM [rising, partial curve, poor fit]","0.58 µM [rising, single point]"
CCCOc1ccc(-c2nnn(CC(=O)c3ccc4c(c3)OCCO4)n2)cc1,-1.8%,,

SMILES,cell number change,AC50 [1],AC50 [2]
CCNC(=O)COc1ccc(Br)cc1Cl,,"6.51 µM [rising, single point]",
COc1ccc(CCn2c(C)cc(C(=O)CSc3nnnn3-c3ccccc3)c2C)cc1,94.5%,"0.366 µM [rising, full curve]","0.411 µM [rising, full curve]"
Cc1ccccc1OCCC(=O)OCC(=O)N(C)c1c(N)n(Cc2ccccc2)c(=O)[nH]c1=O,-20.7%,"0.731 µM [falling, partial curve, poor fit]",
CC(C)Cn1c(CN2CCN(C(=O)c3ccco3)CC2)nc2c1c(=O)n(C)c(=O)n2C,38.9%,,"4.61 µM [rising, full curve]"
Cc1ccc(S(=O)(=O)N2CCCCC2)cc1NC(=O)CNc1ccccc1N1CCCC1=O,-6.99%,"0.058 µM [rising, full curve, poor fit]",
CC(C)[C@H]1COCCS(=O)(=O)N1Cc1ccc(Cl)cc1,14.1%,,
CC[C@@]12C(=O)N(c3cccc(Br)c3)C(=O)N1[C@H](c1ccc(Cl)cc1)[C@@H]1C(=O)N(C3CCCCC3)C(=O)[C@@H]12,,"29.1 µM [falling, single point]",
CC(=O)CCc1ccc(OCC(=O)Nc2cccc(S(=O)(=O)N(C)c3ccccc3)c2)cc1,47.8%,,"13 µM [rising, partial curve, poor fit]"
CC(=O)c1ccccc1NC(=O)c1ccc(N2CCCC2=O)cc1,37%,"16.4 µM [rising, partial curve]","1.3 µM [rising, partial curve]"
O=C1[C@H]2CC3CCC2(O3)[C@@H]2OCCCN12 (some centres not stated),0.858%,,
Cc1ccc(C(=O)NC(=C(Cl)Cl)S(=O)(=O)c2ccc(Cl)cc2)cc1,-29%,"32.6 µM [falling, partial curve, poor fit]",
CSCCC(NC(=O)c1ccco1)C(=O)Nc1ccc(C)c(S(=O)(=O)N2CCOCC2)c1 (configuration not stated),4.17%,,
Cc1ccc(CNC(=O)CS(=O)CC(=O)O)cc1 (configuration not stated),-30.2%,"14.6 µM [falling, partial curve]","7.31 µM [falling, partial curve]"
Cc1ccc(CN2Cc3cccc4c3[C@@H](CC2=O)[C@H](O)[C@H](O)C4)cc1,-1.56%,"16.4 µM [rising, partial curve]",
CC(=O)Nc1cc(NC(C)=O)c(CC(C)C)s1,-10.8%,"6.51 µM [falling, single point]","0.116 µM [falling, full curve, poor fit]"
CC(C)CN(C(=O)CSc1n[nH]c(-c2cccs2)n1)C1CCS(=O)(=O)C1 (configuration not stated),-4.26%,"29.1 µM [falling, single point]",
COC(=O)CCSCC(=O)Nc1ccc(C)c(S(=O)(=O)N2CCCCC2)c1,-8.11%,,
CC1CN(C(=O)c2ccc(NS(=O)(=O)c3ccc(C(C)(C)C)cc3)cc2)CC(C)O1 (configuration not stated),-14.1%,"29.1 µM [falling, single point]",
Cc1cc2nc(Cl)c(Cl)nc2cc1C,-15.4%,"20.6 µM [falling, single point]",
COc1ccccc1NC(=O)Nc1ccccc1N1CCOCC1,-16.5%,"0.0731 µM [falling, full curve, poor fit]","0.58 µM [rising, single point]"

SMILES,cell number change,AC50 [1],AC50 [2]
Cc1ccnc(NC(=O)c2ccc(OCc3c(C)noc3C)cc2)c1,-25%,,"0.82 µM [rising, single point]"
Cc1ccc(NC(=O)c2ccc(Oc3ncccn3)cc2)cc1,,"6.51 µM [falling, single point]",
O=C(CSc1nnc(CNC(=O)c2ccc(F)cc2)o1)Nc1nccs1,-57.7%,"14.1 µM [falling, partial curve]","5.01 µM [falling, partial curve]"
COc1ccc(/C=C/C2=NN(Cc3ccccc3)C(=O)CC2)cc1,23.7%,"29.1 µM [rising, single point]",
CC(C)(C)NC(=O)CN(C(=O)C(=O)Nc1ccc2c(c1)OCCO2)C1CCCC1,-10.5%,"0.206 µM [falling, single point]",
Cc1cc(C)n2nc(C(=O)OCC(=O)NC3CCCCC3)nc2n1,7%,,
COc1ccc(CCN(Cc2cc3cccc(C)c3[nH]c2=O)C(=O)NC2CCCCC2)cc1OC,23.6%,,"0.164 µM [rising, full curve, poor fit]"
COCCNC(=O)COC(=O)/C=C/c1c(C)nn(Cc2ccc(Cl)cc2Cl)c1Cl,-55.1%,"4.11 µM [falling, single point]","13 µM [falling, partial curve]"
Cc1ccc(-n2c(C)cc(/C=N/NC(=O)c3ccncc3)c2C)c(C)c1,,"16.4 µM [falling, partial curve, poor fit]",
Cc1ccc(C(=O)NCCCNC(=O)COc2ccccc2Cl)cn1,-11.5%,,
O=C(CN1CCOCC1)Nc1ccccc1C(=O)O,-20.6%,"0.184 µM [falling, full curve, poor fit]",
C=CCn1c(SCC(=O)NCc2ccc3c(c2)OCO3)nc2scc(-c3ccc(F)cc3)c2c1=O,68.8%,"18.4 µM [rising, partial curve]","2.59 µM [rising, full curve]"
CN(C)CCN1C(=O)C(=O)/C(=C(/O)c2ccc(S(=O)(=O)N3CCOCC3)cc2)C1c1ccc(Br)cc1 (configuration not stated),11.7%,"0.00651 µM [rising, full curve, poor fit]",
COc1ccc(S(=O)(=O)NCCC(C)C)cc1OC,13.3%,,
Oc1ccc(Cl)cc1CNCc1ccc(F)cc1,-42.5%,"1.64 µM [falling, partial curve]","23.1 µM [falling, single point]"
COc1ccc(N(C(=O)c2snc(C(N)=O)c2N)C(C(=O)NC2CCCC2)c2cccs2)c(OC)c1 (configuration not stated),-31.4%,,"0.291 µM [falling, single point]"
COc1ccc(-c2nn(-c3ccccc3)cc2/C=C(\CC(=O)O)c2nc3ccccc3s2)cc1OC,,"6.51 µM [rising, single point]",
Cc1ccc(-n2c(C)c(C)c3c(N)ncnc32)cc1,4.62%,"6.51 µM [falling, single point]",
CCCCCCc1ccc(OCC(=O)OC)cc1OCC(=O)OC,,"20.6 µM [rising, partial curve, poor fit]",

# Complete entries from above.
# Cc1ccc(C(=O)NCCCNC(=O)COc2ccccc2Cl)cn1 in the list: cell number change: -11.5%
# Cc1ccc(-n2c(C)c(C)c3c(N)ncnc32)cc1 in the list: cell number change: 4.62%; AC50 [1]: 6.51 µM [falling, single point]
# COc1ccc(/C=C/C2=NN(Cc3ccccc3)C(=O)CC2)cc1 in the list: cell number change: 23.7%; AC50 [1]: 29.1 µM [rising, single point]
